Source: the supplement of paper PMC8497498
This is one part of the list. The data scatter; read single values as rough.

How the values were obtained:
Details in all cases: 10 µM
[1] = test system: Plasmodium vivax liver stage (primary human hepatocyte culture); assay: hypnozoite quantity inhibition (% inhibition); higher = more active against hypnozoites
[2] = test system: Plasmodium vivax liver stage (primary human hepatocyte culture); assay: schizont net growth area inhibition (% inhibition); higher = more active against liver schizonts
[3] = test system: primary human hepatocytes; assay: hepatic nuclei reduction relative to DMSO (100 - % of negative control); higher = more toxic to hepatocytes
[4] = assay mode: Prophylactic (treated before or shortly after infection), fixed day 6 post-infection
[5] = assay mode: Radical Cure (treated from day 5 post-infection for 3 days), fixed day 8 post-infection

| SMILES | hypnozoite quantity inhibition [1, 4] | hypnozoite quantity inhibition [1, 5] | schizont net growth area inhibition [2, 4] | schizont net growth area inhibition [2, 5] | hepatic nuclei reduction [3, 4] | hepatic nuclei reduction [3, 5] |
| --- | --- | --- | --- | --- | --- | --- |
| CO[C@@H](C(=O)N1Cc2[nH]nc(NC(=O)c3ccc(N4CCN(C)CC4)cc3)c2C1)c1ccccc1 | 34 | -4 | -22.4 | 17.1 | -1% | -3% |
| CCOC(=O)C1(Cc2ccccc2)CCN(Cc2cccc(OC)c2O)CC1 | 16.4 | 18.3 | -26.9 | -71 | -4% | -7% |
| Nc1nccc2ccc(-c3ccc4nccn4c3)cc12 | -108 | -34 | 6.8 | 64.8 | -4% | 9% |
| O=C1[C@@H](Oc2ccccc2)[C@@H](c2ccc(Cl)cc2)N1CCn1cnc2c(NCc3ccccc3)ncnc21 | -21 | 9 | -24.1 | 39.8 | -6% | 1% |
| Cc1cc(C)c2c(c1)OCN(Cc1ccccc1Cl)C2 | -6.5 | 45 | 32.1 | 13.6 | 1% | 0% |
| CNCCC(Oc1ccc(C(F)(F)F)cc1)c1ccccc1 (stereo not given) | -53 | -12 | 5.5 | -35.6 | -3% | -3% |
| Cc1ccc(C2CC(C(F)(F)F)n3nc(C(=O)N4CCN(C(c5ccccc5)c5ccccc5)CC4)cc3N2)cc1 (stereo not given) | 3.9 | 40.5 | -78.5 | -11.3 | -13% | -10% |
| CC(=O)N1CCc2cc3nc(C)cc(C)c3cc21 | -76 | -46 | -1.3 | -122 | -10% | -2% |
| O=C(COc1cccc(F)c1)Nc1nc(-c2ccccn2)cs1 | 41 | -54 | 27.5 | -103 | -2% | -8% |
| COc1ccccc1CNC(=O)CCn1c(=O)[nH]c2ccsc2c1=O | -7 | -74.3 | 86.9 | 29.1 | -1% | -7% |
| O=C(CCc1ccccc1)c1ccccc1OCC(O)CN1CCCCC1 (stereo not given) | 0 | 42.8 | 20.8 | -23.6 | 2% | -5% |
| O=C(Nc1ccc(Br)cc1)Nc1cccc(Cl)c1 | -7 | 10.1 | 50.5 | 26 | -3% | -7% |
| CONC(=N)c1ccc(-c2ccc(-c3ccc(C(=N)NOC)cc3)o2)cc1 | 0 | 10 | -113 | -51.3 | -20% | -34% |
| COc1cccc(OCC(=O)c2ccc(Br)cc2)c1 | 3 | -23 | 18.7 | -50.9 | 0% | 11% |
| CCOc1cc(Br)c(C(C)NC(=O)c2cccc(OC)c2)cc1OCC (stereo not given) | -2 | 38.2 | 36.8 | -3.8 | 10% | 2% |
| Cc1cc(NCC(C)C)c2n[nH]c(-c3ccccc3)c2n1 | 22 | 11 | 3.7 | -20.4 | 1% | -2% |
| Cc1cc(C)c2nc(N3CCC(C(=O)NCCCN4CCC(N5CCCCC5)CC4)CC3)sc2c1 | -12 | 26.5 | 9.5 | 44.9 | 0% | 0% |
| CNc1cc(C)nc(C2CN(C(=O)c3n[nH]c4ccccc34)CCO2)c1 (stereo not given) | 25 | -46 | 8 | -64.2 | -2% | -3% |
| Cc1ccccc1CN1CCC(O)(c2ccc(Cl)c(C(F)(F)F)c2)CC1 | -43 | -4 | -10.7 | -107 | -11% | -3% |
| Cc1ncc(-c2ccnc(Nc3ccc(S(C)(=O)=O)cc3)n2)n1C(C)C | 46 | 19 | 102 | 89.4 | 22% | 9% |

| SMILES | hypnozoite quantity inhibition [1, 4] | hypnozoite quantity inhibition [1, 5] | schizont net growth area inhibition [2, 4] | schizont net growth area inhibition [2, 5] | hepatic nuclei reduction [3, 4] | hepatic nuclei reduction [3, 5] |
| --- | --- | --- | --- | --- | --- | --- |
| COc1ccc(Cn2cnc3c(-c4ccco4)nc(Cl)nc32)cc1 | 11 | -36 | 11.1 | -242 | -2% | -10% |
| CC(=O)NCC1CN(c2ccc(-c3ccc(CNCc4cn[nH]n4)cc3)c(F)c2)C(=O)O1 (stereo not given) | 20 | -10 | 73 | 35.5 | -4% | -2% |
| CCCCc1c(C)nc2c(OC)cccc2c1O | -18.3 | 10.1 | 17.8 | -38.4 | -1% | -7% |
| CCN(CC)S(=O)(=O)c1ccc(Cl)c(C(=O)Nc2ccc3nc(C)sc3c2)c1 | 34 | 32 | 57.5 | -116 | 1% | 6% |
| CC1=NN(c2nc3ccccc3s2)C(=O)C1Cc1cccc2ccccc12 (stereo not given) | -6 | 6 | 26.6 | -147 | -3% | 3% |
| CN(C)c1cc(NC(=O)Nc2ccccc2)c2ccccc2n1 | 39 | -15 | 42.7 | -60.2 | 4% | 4% |
| COc1ccc(NC(=O)C2c3ccccc3C(=O)N(CC(C)C)C2c2cccs2)cc1 (stereo not given) | 20.9 | 31.9 | 49 | -19.4 | 0% | -6% |
| Oc1c(I)cc(I)c2cccnc12 | 56 | -10 | -18.3 | -43.7 | 10% | -5% |
| CC(C)CCNCC(O)Cn1c2ccccc2c2ccccc21 (stereo not given) | 2.5 | -28 | 16.3 | 33.6 | -1% | -2% |
| CC(C)(C)OC(=O)N1CCC(Cn2nc(-c3cnc4ccccc4c3)c3c(N)ncnc32)CC1 | -21 | -8 | 8.1 | 17 | 4% | 0% |
| COc1cc(-c2nc(-c3ccc(Sc4ccccc4)cc3)c(-c3ccccc3)[nH]2)cc(OC)c1O | -11.7 | 1.5 | 30 | 0.8 | -1% | -6% |
| COc1cccc(Nc2nc(N)c3ccccc3n2)c1 | 8.4 | 42.7 | -5.5 | -22 | 2% | -5% |
| Oc1c(C(Nc2ccccn2)c2cccc(Oc3ccccc3)c2)ccc2cccnc12 (stereo not given) | -11.7 | -53.4 | 96 | 10.2 | 11% | -16% |
| COc1ccc2nc(C)cc(Nc3ccc(Cl)cc3)c2c1 | 36 | 64.6 | 48.9 | -6.5 | -5% | 6% |
| Brc1cncc(-c2cc(NCCCn3ccnc3)nc(-c3ccccc3)n2)c1 | 27 | -31 | -0.3 | -116 | 3% | -15% |
| O=C1c2ccccc2C2=Nc3ccccc3SC(c3cccc(F)c3)C12 (stereo not given) | -25.8 | 61.1 | 36.2 | 18.7 | 0% | -2% |
| O=C(NCc1cc(Cl)cc(Cl)c1)c1c(C(F)(F)F)nc2ccccn12 | 17 | -44 | 47.4 | -240 | 2% | -6% |
| Cc1ccc(F)cc1NC(=O)c1cc(Cl)ccc1Nc1ccccc1 | -12 | -6.2 | 26.6 | -37.2 | 1% | -12% |
| NS(=O)(=O)c1cncc(-c2ccc3nccc(-c4cn[nH]c4)c3n2)c1 | -7 | -29 | -101 | 5.9 | -4% | 1% |
| Cc1cc(C(=O)Nc2cnn(Cc3ccc(Cl)cc3Cl)c2)no1 | -43 | -72 | 37.8 | -114 | -1% | 0% |

Record cards (already shown). Values in the order: hypnozoite quantity inhibition [1, 4]	hypnozoite quantity inhibition [1, 5]	schizont net growth area inhibition [2, 4]	schizont net growth area inhibition [2, 5]	hepatic nuclei reduction [3, 4]	hepatic nuclei reduction [3, 5]
CCCCc1c(C)nc2c(OC)cccc2c1O as listed: -18.3	10.1	17.8	-38.4	-1%	-7%
COc1ccc2nc(C)cc(Nc3ccc(Cl)cc3)c2c1 as listed: 36	64.6	48.9	-6.5	-5%	6%
O=C1c2ccccc2C2=Nc3ccccc3SC(c3cccc(F)c3)C12 (stereo not given) as listed: -25.8	61.1	36.2	18.7	0%	-2%
O=C(NCc1cc(Cl)cc(Cl)c1)c1c(C(F)(F)F)nc2ccccn12 as listed: 17	-44	47.4	-240	2%	-6%

Remaining list, next part:

| SMILES | hypnozoite quantity inhibition [1, 4] | hypnozoite quantity inhibition [1, 5] | schizont net growth area inhibition [2, 4] | schizont net growth area inhibition [2, 5] | hepatic nuclei reduction [3, 4] | hepatic nuclei reduction [3, 5] |
| --- | --- | --- | --- | --- | --- | --- |
| Cc1ccc(Oc2ccc(NC(=O)CNc3ccccc3N3CCCC3=O)cc2)cc1 | 11 | -38 | -25.1 | -25.7 | -3% | 3% |
| CN1CCCC1CCO[C@](C)(c1ccccc1)c1ccc(Cl)cc1 (stereo not given in full) | 38 | 11 | 93.6 | 61.3 | 11% | -2% |
| COCC(C)NC(=O)CSc1ncnc2sc(-c3ccccc3)cc12 (stereo not given) | 34 | 11 | 14.8 | 8.4 | 0% | -2% |
| COc1cccc(NC(=O)c2c(NC(=O)c3cccnc3)sc3c2CCC3)c1 | -11 | -3 | -6.3 | -27.1 | -7% | -3% |
| COc1ccc2nc(N)nc(C)c2c1 | -14.7 | 8.4 | -1.2 | 10.4 | -11% | -1% |
| COc1ccccc1CNC(=O)C1c2ccccc2C(=O)N(CC(C)C)C1c1cccs1 (stereo not given) | -16.4 | -17.1 | 4.7 | -36.2 | 12% | -1% |
| COc1ccc(C2=NN(C3CCCCCC3)C(=O)C2(C)C)cc1OCCCCOc1ccc(-c2nn[nH]n2)cc1 | 27 | 6 | -36.2 | 27.8 | -2% | -7% |
| Nc1nc(Nc2cccc(F)c2)nc2ccccc12 | 11.4 | 29.2 | 6.9 | 47.7 | -2% | -4% |
| CC(C)OCc1cc(CN2CCN(c3cccc(Cl)c3)CC2)c(O)c2ncccc12 | -3.8 | -8.9 | -11.7 | -14.7 | -1% | -8% |
| CCN(CC)CCNc1ccnc2cc3ccccc3cc12 | -2.8 | 51.9 | -295 | 42.5 | -4% | -3% |
| N=C(N)Nc1ccc(-c2ccc(-c3ccc(N=C(N)N)c(Cl)c3)o2)cc1Cl | -129 | 12 | -37.4 | 58.5 | -14% | -8% |
| COc1cccc(N2CCN(C3=Nc4c(F)cccc4[C@H](CC(=O)O)N3c3cc(C(F)(F)F)ccc3OC)CC2)c1 | 1 | -19 | -30.6 | -96.1 | -4% | -3% |
| Cc1[nH]c(-c2ccc(F)cc2)cc1C(=O)NC1CCN(Cc2ccccc2)CC1 | -5.7 | -30.7 | 16.2 | -24.9 | -2% | -13% |
| OC1=C2C(=Nc3ccccc3SC2c2ccc(Br)cc2)c2ccccc21 (stereo not given) | 19 | 42.8 | 2.7 | 14.9 | 6% | -7% |
| Cc1cc(C=C2SC(=Nc3ccccc3)N(C3CCCC3)C2=O)c(C)n1-c1ccc(Cl)cc1 | -8.8 | 10.1 | 39.6 | -98.1 | 0% | -5% |
| O=c1c2c([nH]c3ccccc13)CCCC2 | -11.4 | -3.5 | 71 | -64.2 | -2% | -13% |
| CCCn1c(NC(=O)c2ccc3ccccc3n2)nc2ccccc21 | 22 | -25 | -19 | 22 | 1% | -5% |
| COC(=O)c1cccc2oc(-c3cccc(OC)c3NC(=O)c3cc(-c4ccccc4)on3)nc12 | -5 | 43 | -70.6 | 55.2 | -7% | -1% |
| CC(C)(C(=O)Nc1ccc(F)cc1)n1cc(-c2ccccc2F)cn1 | 18 | 11 | 34.3 | -65.6 | -4% | -8% |
| Cc1ccc(NC(=O)c2nc[nH]c2C(=O)Nc2nc3ccccc3[nH]2)c(C)c1 | -41 | -41 | 61 | -122 | -8% | -8% |
